Laboratory results as given in US11331364B2, “Use for JNK inhibitor molecules for treatment of various diseases” (Xigen Inflammation Ltd., priority 2014, dated 2022).
At least one compound was matched to its structure with a doubt left.

Assays:
[1] = system: Imiquimod-induced psoriasis in mice; assay: Imiquimod-induced psoriasis, ear histopathology; format: in vivo, mouse; details: 0.5 mg/kg IV days 1, 4, 7
Description: Female BALB/cAnNCrl mice (Charles River, age 8 to 10 weeks at study start) have been assigned to the following groups (treatment schedule):
In this experiment, two positive controls have been utilized. Firstly, Prednisolone at 10 mg/kg (vehicle: 1% Hydroxyethylcellulose, 0.25% Polysorbate 80, and 0.05% Antifoam in purified water) has been dosed daily and orally (group “Prednisolone”). Secondly, Dexamethasone has been administered at 0.5 mg/kg (vehicle: sterile 0.9% NaCl) on days 1, 4 and 7 via intravenous route.
On day 8, animals have been sacrificed and the tissue (ear) has been fixed in 10% neutral buffered formalin. For histopathology hematoxylin-and-eosin-stained sections (cross cut) have been prepared and microscopic evaluation on the collected tissues from all animals has been performed. Methods and end-points for histopathology were similarly described in the van der Fits (2009) paper in that inflammation, epidermal hyperplasia, epidermal hyperkeratosis (rather than parakeratosis) were observed and recorded for severity grade, whereby the respective methodology from Van der Fits et al. (The Journal of Immunology 2009, 182, P. 5836-5845) is hereby incorporated by reference. Histopathology grading scores were excluded for either skin or ear in animals with secondary inflammatory processes (full thickness epidermal ulcers). Scores were averaged by group and standard deviation and statistical significance were calculated. […] Formalin-fixed, paraffin embedded skin from the dorsal surface of the mouse (BALB/c) was stained with hematoxylin and eosin (H&E) stain and assessed microscopically. An important difference from the above reference and to describe in more detail the observations of the present study: Hyperkeratosis can be defined specifically as orthokeratotic (no retained nuclei) or parakeratotic (retained nuclei). Either can occur normally in various anatomical locations and depending on species; however, both conditions are well defined in particular disease states. […]

[2] = system: established type II collagen arthritis in rats; assay: Chronic established type II collagen arthritis, daily IV 14 days; format: in vivo, rat; details: 0.05 mg/kg IV QD; p<0.05 d3-14
Source text: Rat collagen arthritis is an experimental model of polyarthritis that has been widely used for preclinical testing of numerous anti-arthritic agents that are either under preclinical or clinical investigation or are currently used as therapeutics in this disease. […] Animals were terminated on arthritis day 14.

**Q.** `C[C@@H]1C[C@H]2[C@@H]3CCC4=CC(=O)C=C[C@]4(C)[C@@]3(F)[C@@H](O)C[C@]2(C)[C@@]1(O)C(=O)CO` [dexamethasone, reference compound] was tested. Which “epidermal hyperkeratosis of the ear (average grades)” value [1] did it give?
**A.** minimally decreased average grades

**Q.** What about the “inflammation of the ear (average grade) vs vehicle-IMQ” value [1] of the same compound?
**A.** significant differences from the vehicle control group

**Q.** And the “inflammation of the ear (average grade) vs vehicle-IMQ” value ([1]; listed as Dexamethasone)?
**A.** decreased inflammation of the ear

**Q.** What about the “daily ankle diameter measurements” value [2] of the same compound?
**A.** reduced toward normal
